PubChem BioAssay AID1259308 | NCATS | 2017

Test: 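Genes whose loss raises luciferase production in HEK293 cells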 (primary screen)
Cell system: human HEK293 embryonic kidney cells stably expressing firefly luciferase (HEK-CMV-Luc2-Hygro)
Reagent: single siRNA against human genes, 0.8 pmol siRNA per well
Timing: 72 h
Measurement: 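Reporter luminescence and viable-cell signal on separate replicate plates, given as percent of non-targeting control and median/MAD z-scores, plus per-cell luciferase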
Reading the numbers: total luciferase, z-score and total luciferase, % of control: higher = more reporter protein produced; luciferase per cell, z-score: higher = more reporter output per viable cell; viable cells, % of control: higher = more viable cells
Call rule: 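An siRNA counts as active if its total luciferase robust z-score exceeds 3; genes with two or more such siRNAs out of three were retested with fresh siRNAs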
Calls: active = raised luciferase; inactive = no rise
Here is one part, drawn at random, of about 59,000 deposited reagents. About 1,510 of all reagents (2.6%) count as active. 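Calls use total luciferase alone and ignore viability, so some active siRNAs may act by altering cell number.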 Unmarked entries are inactive.

gene | PubChem SID | total luciferase, z-score | total luciferase, % of control | luciferase per cell, z-score | viable cells, % of control
MPHOSPH10 (GeneID 10199) | SID160726806 | -0.918 | 63.6 | -0.57 | 82.6
MPHOSPH10 (GeneID 10199) | SID160726815 | -0.978 | 62.4 | 0.227 | 65.7
MPHOSPH10 (GeneID 10199) | SID160726821 | -1.46 | 52.9 | -1.5 | 87.7
CLEC4C (GeneID 170482) | SID160730704 | -2.26 | 36.9 | -2.05 | 70.8
CLEC4C (GeneID 170482) | SID160760416 | -1.36 | 54.8 | -1.37 | 87.8
CLEC4C (GeneID 170482) | SID160760417 | 0.178 | 85.4 | 0.21 | 90.3
THRSP (GeneID 7069) | SID160718056 | 0.419 | 90.2 | 0.222 | 95.1
THRSP (GeneID 7069) | SID160718057 | -0.889 | 64.2 | -0.587 | 83.7
THRSP (GeneID 7069) | SID160718058 | 0.118 | 84.2 | 0.205 | 89.2
NAPRT (GeneID 93100) | SID160724707 | 0.632 | 94.5 | 0.541 | 91.5
NAPRT (GeneID 93100) | SID160735207 | 0.154 | 84.9 | 0.542 | 82.3
NAPRT (GeneID 93100) | SID160754434 | 0.506 | 92 | -0.162 | 107
GATC (GeneID 283459) | SID160762921 | 3.59 (active) | 153 | 2.55 | 87.7
GATC (GeneID 283459) | SID160762922 | -0.11 | 79.7 | -0.0239 | 89.6
GATC (GeneID 283459) | SID160762923 | 0.431 | 90.5 | -0.477 | 115
SHANK1 (GeneID 50944) | SID160739806 | 0.284 | 87.5 | 0.171 | 93.5
SHANK1 (GeneID 50944) | SID160739807 | -0.39 | 74.1 | -0.126 | 85.6
SHANK1 (GeneID 50944) | SID160739808 | -0.686 | 68.2 | -0.752 | 93
MC5R (GeneID 4161) | SID160777028 | -0.344 | 75 | 0.818 | 67.6
MC5R (GeneID 4161) | SID160777029 | -0.235 | 77.2 | -0.774 | 106
MC5R (GeneID 4161) | SID160777031 | -0.0304 | 81.3 | -0.31 | 98.6
TMEM60 (GeneID 85025) | SID160753134 | 5.89 (active) | 199 | 3.85 | 80.8
TMEM60 (GeneID 85025) | SID160753136 | 0.215 | 86.2 | 0.419 | 86.2
TMEM60 (GeneID 85025) | SID160753137 | -0.436 | 73.2 | 0.794 | 66.4

Continued; the last 4 above are carried over.
gene | PubChem SID | total luciferase, z-score | total luciferase, % of control | luciferase per cell, z-score | viable cells, % of control
MC5R (GeneID 4161) | SID160777031 | -0.0304 | 81.3 | -0.31 | 98.6
TMEM60 (GeneID 85025) | SID160753134 | 5.89 (active) | 199 | 3.85 | 80.8
TMEM60 (GeneID 85025) | SID160753136 | 0.215 | 86.2 | 0.419 | 86.2
TMEM60 (GeneID 85025) | SID160753137 | -0.436 | 73.2 | 0.794 | 66.4
CLEC9A (GeneID 283420) | SID160762902 | -0.13 | 79.3 | 0.53 | 77.1
CLEC9A (GeneID 283420) | SID160762904 | -0.215 | 77.6 | -0.34 | 94.9
CLEC9A (GeneID 283420) | SID160762905 | -1.25 | 57.1 | -0.298 | 69
IQCF6 (GeneID 440956) | SID160725413 | 0.464 | 91.1 | 1.13 | 75.6
IQCF6 (GeneID 440956) | SID160725414 | 0.624 | 94.3 | 1.47 | 71.6
IQCF6 (GeneID 440956) | SID160725415 | -0.0401 | 81.1 | -0.543 | 105
WFDC6 (GeneID 140870) | SID160757928 | 0.293 | 87.7 | 1.03 | 74.7
WFDC6 (GeneID 140870) | SID160757929 | 1.75 | 117 | 2.34 | 70.5
WFDC6 (GeneID 140870) | SID160757930 | -0.185 | 78.2 | -0.0119 | 87.7
SECTM1 (GeneID 6398) | SID160716540 | 0.617 | 94.2 | 0.608 | 89.6
SECTM1 (GeneID 6398) | SID160716541 | 0.0798 | 83.5 | 0.0471 | 92.1
SECTM1 (GeneID 6398) | SID160716543 | -2.25 | 37.2 | -2.11 | 72.5
SPINK2 (GeneID 6691) | SID160717266 | 0.318 | 88.2 | 0.15 | 94.8
SPINK2 (GeneID 6691) | SID160717267 | 0.201 | 85.9 | -0.487 | 109
SPINK2 (GeneID 6691) | SID160731785 | 0.233 | 86.5 | -0.474 | 110
